The values that follow are results of earlier work, collected in PMC3703823 (Clinical cancer research : an official journal of the …, 2011).

The target in this series is AAG. As to conditions: cited from earlier work.

`Cc1ccc(NC(=O)c2ccc(CN3CCN(C)CC3)cc2)cc1Nc1nccc(-c2cccnc2)n1` [imatinib]: the “KD for AAG (corresponding to KA)” value is 0.6 µmol/L.
